Source: PubChem BioAssay AID1671190 (National Center for Advancing Translational Sciences (NCATS), 2021)
About 6,100 (1.1%) of roughly 580,000 compounds were called active. Inconclusive results, whose numbers are uncertain, are shown with a selection of clear calls. The call rests on the fitted dose curve; in most records, active means well fitted inhibition curve with a large enough effect; inconclusive means small, poorly fitted or top-dose-only effect, or another doubt; inactive means no such curve, though single readings can be large or run the other way. Where the call is inconclusive, the potency comes from a doubtful curve fit.

Amino acid sequences for entries named in this document (tags omitted). A change or cut given only in a name is not applied to a line headed by its entry.
UniProt P18054: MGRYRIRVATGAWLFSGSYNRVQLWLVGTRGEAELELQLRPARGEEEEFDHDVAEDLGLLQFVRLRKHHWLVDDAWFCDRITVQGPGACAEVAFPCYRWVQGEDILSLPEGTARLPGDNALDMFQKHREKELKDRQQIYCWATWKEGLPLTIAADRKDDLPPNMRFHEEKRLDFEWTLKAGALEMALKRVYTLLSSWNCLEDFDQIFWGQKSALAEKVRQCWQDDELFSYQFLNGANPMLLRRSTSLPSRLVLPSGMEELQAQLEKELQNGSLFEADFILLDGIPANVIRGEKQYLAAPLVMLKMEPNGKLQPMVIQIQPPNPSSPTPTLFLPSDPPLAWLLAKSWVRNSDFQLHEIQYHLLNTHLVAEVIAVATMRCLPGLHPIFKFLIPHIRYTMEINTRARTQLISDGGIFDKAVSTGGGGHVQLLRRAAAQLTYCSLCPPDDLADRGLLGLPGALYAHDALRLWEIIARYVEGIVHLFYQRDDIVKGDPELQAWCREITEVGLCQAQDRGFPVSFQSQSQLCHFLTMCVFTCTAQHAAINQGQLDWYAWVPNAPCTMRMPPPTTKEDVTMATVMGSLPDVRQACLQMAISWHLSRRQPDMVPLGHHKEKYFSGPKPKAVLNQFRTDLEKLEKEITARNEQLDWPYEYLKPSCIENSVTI

target: Polyunsaturated fatty acid lipoxygenase ALOX12 (Homo sapiens) (UniProt P18054); assay: Primary qHTS assay for inhibitors of human arachidonate 12S-lipoxygenase (ALOX12): Round 2; settings: purified 12hLO, xylenol orange hydroperoxide absorbance; activity change, negative = inhibition: at 108 µM (top of the series) unless noted
How it was run: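 Purified human 12hLO (150 nM final) in 25 mM Hepes, 0.01% Triton X-100, pH 7.0 was preincubated 15 min at room temperature with compound. Then 40 uM arachidonic acid was added, 30 min. Hydroperoxide was read by Fe-XO absorbance ratio 573/405 nm.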
On the % scale 0 is the no-effect control and ±100 the full control effect; potency means the concentration at half of the fitted maximal effect.

Compound	Potency	activity change, negative = inhibition
CC1C(=O)N(Cc2cn(Cc3ccco3)nn2)CCS(=O)(=O)N1Cc1ccc(-c2ccc(F)cc2)cc1 (stereo not given)	inconclusive: 39.8 µM [inhibitor, partial curve, poor fit]	
COc1cc(OC)cc(C(=O)NC2CCSC2=O)c1 (stereo not given)		inactive: -23.6%
COc1ccccc1N1C(=O)C(Cl)=C(Nc2ccccc2O)C1=O	inconclusive: 50.1 µM [inhibitor, partial curve, poor fit]	
CCCNC(=O)CNC(=O)CCc1ncc(-c2ccc(C)cc2)o1		inactive: 18.6%
O=C(Nc1ccc(N2CCCC2)c(Cl)c1)c1ccccc1[N+](=O)[O-]		inactive: -8.12%
Cc1ccc(C(=O)Nc2nc(-c3ccc(F)cc3)cs2)o1	inconclusive: 89.1 µM [inhibitor, single point]	
CCc1nc(CC(=O)N(CC#N)C2CC2)cs1		inactive: 17.1%
COc1c(C=O)cc2c3c1CCCN3CCC2	inconclusive: 39.8 µM [inhibitor, partial curve, poor fit]	
CCCC(=O)Nc1nn(CC(C)C)c2nc3cc(C)ccc3cc12	inconclusive: 100 µM [inhibitor, partial curve, poor fit]	
CCOC(=O)c1sc(NC(=O)c2cccc(S(=O)(=O)N3CCN(C)CC3)c2)cc1C	active: 44.7 µM	
CN(C(=O)[C@@H]1C[C@@H](c2ccc(F)cc2)N([S+](=O)([O-])c2ccccc2)C1)c1cccnc1	inconclusive: 0.447 µM [inhibitor, full curve, poor fit]	
Cc1ccccc1OCc1nnc(SCC(=O)NCc2ccco2)n1C	inconclusive: 44.7 µM [inhibitor, partial curve, poor fit]	
Cc1ccc(-c2nonc2NC(=O)c2ccco2)cc1C	inconclusive: 141 µM [inhibitor, single point]	
CSc1nnc(N2C(=O)C(O)=C(C(=O)c3ccc(C)o3)C2c2ccc(C)cc2)s1 (stereo not given)	inconclusive: 44.7 µM [inhibitor, partial curve]	
CC(C)(C(=O)Nc1ccccc1)n1cc(NC(=O)c2cc(F)cc(F)c2)cn1	inconclusive: 141 µM [inhibitor, single point]	
Cc1ccccc1OCCCc1c(C)n[nH]c1C	inconclusive: 89.1 µM [inhibitor, single point]	
Cc1ccc(S(=O)(=O)N2CCN(C(=O)c3cc4ccccc4oc3=O)CC2)cc1		inactive: -25.3%
CCN1CCN(S(=O)(=O)c2cccc(S(=O)(=O)N3CCOCC3)c2)CC1	inconclusive: 50.1 µM [inhibitor, partial curve, poor fit]	
Cc1ccc(/C=N/Nc2cc(C)c3ccccc3n2)s1	inconclusive: 44.7 µM [inhibitor, partial curve, poor fit]	
O=C(C[n+]1ccccc1)c1ccc(NC(=O)c2ccccc2)cc1	inconclusive: 44.7 µM [inhibitor, partial curve, poor fit]	
O=C(Cn1ccc2ccccc2c1=O)NCCC(=O)N1CCN(c2ccccc2)CC1	inconclusive: 44.7 µM [inhibitor, partial curve, poor fit]	
CC1(C)Cc2cccc(Oc3nc4ccccc4o3)c2O1		inconclusive: -36.9% [inhibitor]
COc1ccc(C(=O)N/C(=C\c2cc(OC)c(OC)cc2[N+](=O)[O-])C(=O)NCC(=O)O)cc1		inactive: -3.77%

2 entries picked at random from those above:
Compound	Potency	activity change, negative = inhibition
CCOC(=O)c1sc(NC(=O)c2cccc(S(=O)(=O)N3CCN(C)CC3)c2)cc1C	active: 44.7 µM	
Cc1ccc(C(=O)Nc2nc(-c3ccc(F)cc3)cs2)o1	inconclusive: 89.1 µM [inhibitor, single point]	

The listing continues:

Compound	Potency	activity change, negative = inhibition
CCOC(=O)c1[nH]c(C=O)c(CC)c1C		inactive: -51.4%
O=C(CSc1nc(C2CC2)n(-c2ccccc2)n1)N1CCN(c2ccc(O)cc2)CC1	inconclusive: 50.1 µM [inhibitor, single point]	
CCOc1ccc(N(C(=O)c2cc(OC)c(OC)c(OC)c2)C2C=CS(=O)(=O)C2)cc1 (stereo not given)	inconclusive: 44.7 µM [inhibitor, partial curve, poor fit]	
Cn1cccc1C(=O)N1CCC(N2CC3CC(C2)[C@H]2CCCC(=O)N2C3)CC1 (stereo not given in full)		inactive: 2.65%
O=C(Nc1ccc(-c2ccccc2)cc1)c1ccccc1F		inactive: -93.4%
Cc1cccc(C)c1NC(=O)CSCc1cnn(-c2ccccc2)c1-n1cccc1	inconclusive: 141 µM [inhibitor, partial curve, poor fit]	
CC(=O)NC(c1cc(Cl)c2cccnc2c1O)C(C)C (stereo not given)	inconclusive: 22.4 µM [inhibitor, partial curve, poor fit]	
COc1ccc(-c2c(C)nn3c(Cl)c(C)c(C)nc23)cc1	inconclusive: 31.6 µM [inhibitor, single point]	
CSCCC(NS(=O)(=O)c1ccc2c(c1)oc(=O)n2C)C(=O)Nc1ccc(F)cc1 (stereo not given)		inactive: -17.7%
CCOc1ccc(C(=O)NCc2ccco2)cc1OC		inactive: 7.34%
COc1ccc(-c2nc3ccc(C)cn3c2Cc2ccccc2)cc1OC	inconclusive: 89.1 µM [inhibitor, single point]	
Cc1cc(C)n(S(=O)(=O)c2ccc(F)cc2)n1	inconclusive: 0.251 µM [inhibitor, full curve, poor fit]	
O=C1N=c2ccccc2=C1c1sc(=O)[nH]c1O		inactive: 60.4%
O=C1CCCCCCCCCCCCCCCO1		inactive: 3.77% [at 176 µM]
NC(CC(=O)O)c1ccc(Br)cc1 (stereo not given)	inconclusive: 25.1 µM [inhibitor, partial curve, poor fit]	
NC(CSCC(=O)O)C(=O)O (stereo not given)		inactive: 8.67%
O=C1NC[C@@H](Cc2cccc3ccccc23)N(CC2(c3ccccc3)CC2)C1=O	inconclusive: 44.7 µM [inhibitor, partial curve]	
Cn1cc(P(=O)(N2CCOCC2)N2CCOCC2)cc1P(=S)(N1CCOCC1)N1CCOCC1		inactive: -9.67%
CC(=O)Nc1ccc(S(=O)(=O)NNc2ccc([N+](=O)[O-])cc2)cc1	inconclusive: 2 µM [inhibitor, full curve, poor fit]	
Cc1ccc(-c2cc3c(=O)n(CCNC(=O)Cc4ccc(Cl)cc4)ccn3n2)cc1C	active: 39.8 µM	
COc1ccccc1NC(=O)Nc1nc(CC(=O)N2CCN(c3ccc(F)cc3)CC2)cs1		inactive: -9.39%
C[C@H](CO)N1C[C@H](C)[C@H](CN(C)C(=O)C2CCCCC2)OCc2cnnn2CCCC1=O	inconclusive: 100 µM [inhibitor, single point]	
